PubChem BioAssay AID686938 | Drosophila RNAi Screening Center – 2013
In all, the deposit lists about 23,000 reagents; below is an unselected part of those with a known target gene and a result. Over the whole deposit, 75 (0.33%) were called active. 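Raw plate signals without normalisation; calls rest on plate z-scores that were not deposited; ratio present for only 364 wells.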 The numbers tell different reagents against one gene apart. Names joined by + are all predicted targets of the reagent. The record does not give: the dose of the treatment.

- Assay: 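Fly genes required for calcium entry once internal stores are emptied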 (primary screen)
- Cells: Drosophila S2R+ cells
- Reagent: long dsRNA against Drosophila genes, about 0.25 µg dsRNA per well, roughly 10,000 cells
- Time to read-out: 5 days of knock-down before the calcium assay
- Treatment: thapsigargin (SERCA pump blocker) to empty calcium stores; entry signal taken 4 min after adding it
- Detection: 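Duplicate raw fluo-4 intensities per well from a plate reader, at rest and four minutes after thapsigargin emptied calcium stores; entry-to-rest ratio filled for only some wells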
- Scale: calcium entry signal: higher = stronger calcium signal after store depletion; resting calcium signal: higher = higher resting calcium signal
- Hit rule: 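Called when the plate z-score of the entry-to-rest ratio, mean of duplicates, falls below −3; wells with low overall dye signal (Fmax z below −2) or more than five off-targets excluded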
- Calls: active = strongly reduced calcium entry; inactive = no strong reduction

| predicted target | reagent no. | calcium entry signal, replicate 1 (fluorescence units) | calcium entry signal, replicate 2 (fluorescence units) | resting calcium signal, replicate 1 (fluorescence units) | resting calcium signal, replicate 2 (fluorescence units) | outcome |
| --- | --- | --- | --- | --- | --- | --- |
| CG18518 (GeneID 34932) | 1 | 2.97e7 | 3.37e7 | 1.58e7 | 1.73e7 | inactive |
| CG13186 (GeneID 36294) | 1 | 2.16e7 | 3.39e7 | 1.10e7 | 1.49e7 | inactive |
| CG12096 (GeneID 32269) | 1 | 3.51e7 | 3.15e7 | 2.19e7 | 1.51e7 | inactive |
| CG9649 (GeneID 41727) | 1 | 3.61e7 | 3.79e7 | 1.57e7 | 1.78e7 | inactive |
| CG6788 (GeneID 32773) | 1 | 2.76e7 | 3.29e7 | 1.47e7 | 1.64e7 | inactive |
| CycD (GeneID 32551) | 1 | 3.67e7 | 3.37e7 | 2.13e7 | 1.81e7 | inactive |
| tou (GeneID 36241) | 1 | 2.68e7 | 3.09e7 | 1.07e7 | 1.40e7 | inactive |
| tou (GeneID 36241) | 2 | 4.15e7 | 2.89e7 | 1.66e7 | 1.09e7 | inactive |
| CG13046 (GeneID 39791) | 1 | 3.63e7 | 4.81e7 | 1.78e7 | 1.95e7 | inactive |
| Acbp6 (GeneID 38782) | 1 | 2.20e7 | 4.87e7 | 1.06e7 | 2.03e7 | inactive |
| CG14286 (GeneID 42280) | 1 | 3.54e7 | 3.19e7 | 3.81e7 | 1.32e7 | inactive |
| CG13605 (GeneID 42858) | 1 | 3.26e7 | 3.21e7 | 1.70e7 | 1.52e7 | inactive |
| CG14929 (GeneID 3771749) | 1 | 3.34e7 | 4.31e7 | 1.68e7 | 1.99e7 | inactive |
| CG13810 (GeneID 38278) | 1 | 2.55e7 | 3.58e7 | 1.28e7 | 1.51e7 | inactive |
| CG13810 (GeneID 38278) | 2 | 2.83e7 | 3.86e7 | 1.45e7 | 1.73e7 | inactive |
| Ets65A (GeneID 38700) | 1 | 2.37e7 | 3.99e7 | 1.21e7 | 1.79e7 | inactive |
| Ets65A (GeneID 38700) | 2 | 1.28e7 | 3.51e7 | 1.03e7 | 2.53e7 | inactive |
| Ets65A (GeneID 38700) | 3 | 3.43e7 | 1.20e7 | 2.40e7 | 1.03e7 | active |
| Mlf (GeneID 36750) | 1 | 2.14e7 | 2.49e7 | 1.02e7 | 1.26e7 | inactive |
| CG14760 (GeneID 35802) | 1 | 3.44e7 | 3.81e7 | 1.54e7 | 1.64e7 | inactive |
| Gp150 (GeneID 37549) | 1 | 4.56e7 | 3.84e7 | 2.20e7 | 1.77e7 | inactive |
| Cyp4d2 (GeneID 31192) | 1 | 2.88e7 | 3.45e7 | 1.45e7 | 1.66e7 | inactive |
| CG34253 + lncRNA:CR32194 | 1 | 4.10e7 | 3.62e7 | 1.96e7 | 2.06e7 | inactive |
| TTLL5 (GeneID 43015) | 1 | 3.82e7 | 3.24e7 | 2.03e7 | 1.59e7 | inactive |
